# Assay results published in patent US11911228B2, “Aqueous solution for use in cleaning via irradiation by ultraviolet rays and/or near-ultraviolet visible light and/or light in 800-900 nm near-infrared region, dentifrice including said solution, dental treatment device, toothbrush, and tooth cleaning method” (Luke Co., Ltd., priority 2016, dated 2024).
# Read-outs that look alike come from different tables or passages of the source.
structure (smiles),measurement,setting,value
OO [hydrogen peroxide],generation of hydroxyl radical,"0.1 M, 805 nm infrared ray",generation of the hydroxyl radical was observed
same,generation of hydroxyl radical,"1M, 805 nm infrared ray",clearly generated
same,irradiation time for generating 10 μM of hydroxyl radical,805 nm infrared ray,≥ 25 s
same,rate of hydroxyl radical increase after photoirradiation,"805 nm infrared ray, linear increase",2 μM per 10 seconds
same,hydroxyl radical contained before photoirradiation,before 805 nm photoirradiation,5 µM
